According to the supplement of paper PMC10849652:
Some of the results follow. Residues, ends and D or L forms follow the SMILES beside them. *: point of attachment. Cbz = O=C(OCc1ccccc1)*

By UniProt entry, the sequences of proteins in these tests, tags left out. Where a name states a change or a piece, a line headed by the entry shows the natural chain unless it says otherwise.
UniProt Q9H967: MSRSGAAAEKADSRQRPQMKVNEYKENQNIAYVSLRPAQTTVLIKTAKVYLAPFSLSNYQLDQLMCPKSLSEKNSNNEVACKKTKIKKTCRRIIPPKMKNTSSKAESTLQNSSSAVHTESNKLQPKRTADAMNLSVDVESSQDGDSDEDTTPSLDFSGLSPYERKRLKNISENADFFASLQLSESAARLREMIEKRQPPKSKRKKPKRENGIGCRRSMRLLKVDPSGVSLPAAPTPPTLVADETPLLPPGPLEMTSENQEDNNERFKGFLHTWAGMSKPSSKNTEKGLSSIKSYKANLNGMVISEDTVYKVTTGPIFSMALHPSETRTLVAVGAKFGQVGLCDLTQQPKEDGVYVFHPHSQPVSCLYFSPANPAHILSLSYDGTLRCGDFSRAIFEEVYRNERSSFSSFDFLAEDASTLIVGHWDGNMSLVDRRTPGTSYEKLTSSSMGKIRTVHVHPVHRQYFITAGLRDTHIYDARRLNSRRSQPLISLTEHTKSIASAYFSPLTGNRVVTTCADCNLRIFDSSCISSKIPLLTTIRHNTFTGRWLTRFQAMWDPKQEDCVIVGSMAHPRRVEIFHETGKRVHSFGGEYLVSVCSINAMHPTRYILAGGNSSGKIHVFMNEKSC
UniProt Q9Y4P8: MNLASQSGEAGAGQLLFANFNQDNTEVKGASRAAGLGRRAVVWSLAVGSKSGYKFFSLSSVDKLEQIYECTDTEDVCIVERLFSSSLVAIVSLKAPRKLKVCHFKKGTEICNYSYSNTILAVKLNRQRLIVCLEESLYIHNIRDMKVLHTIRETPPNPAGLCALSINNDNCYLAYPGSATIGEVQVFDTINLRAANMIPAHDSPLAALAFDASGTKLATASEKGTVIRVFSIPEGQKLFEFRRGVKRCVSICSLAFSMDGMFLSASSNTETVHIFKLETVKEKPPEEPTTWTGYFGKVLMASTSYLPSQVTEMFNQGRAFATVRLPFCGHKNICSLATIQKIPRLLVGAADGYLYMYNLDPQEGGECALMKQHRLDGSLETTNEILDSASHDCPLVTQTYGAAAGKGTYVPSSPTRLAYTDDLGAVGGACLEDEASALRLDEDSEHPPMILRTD
UniProt Q9NZC7: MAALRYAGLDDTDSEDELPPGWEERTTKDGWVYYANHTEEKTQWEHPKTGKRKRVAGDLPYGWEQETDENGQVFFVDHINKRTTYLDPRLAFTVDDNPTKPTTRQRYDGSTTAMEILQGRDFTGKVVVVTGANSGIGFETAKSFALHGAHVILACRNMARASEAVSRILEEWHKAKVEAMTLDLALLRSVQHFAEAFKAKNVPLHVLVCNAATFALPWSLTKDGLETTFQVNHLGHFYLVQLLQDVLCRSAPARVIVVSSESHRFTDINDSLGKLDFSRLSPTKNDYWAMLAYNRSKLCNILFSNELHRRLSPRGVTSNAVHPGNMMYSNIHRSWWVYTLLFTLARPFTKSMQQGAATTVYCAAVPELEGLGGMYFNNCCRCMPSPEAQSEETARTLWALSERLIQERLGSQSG
UniProt Q9H867: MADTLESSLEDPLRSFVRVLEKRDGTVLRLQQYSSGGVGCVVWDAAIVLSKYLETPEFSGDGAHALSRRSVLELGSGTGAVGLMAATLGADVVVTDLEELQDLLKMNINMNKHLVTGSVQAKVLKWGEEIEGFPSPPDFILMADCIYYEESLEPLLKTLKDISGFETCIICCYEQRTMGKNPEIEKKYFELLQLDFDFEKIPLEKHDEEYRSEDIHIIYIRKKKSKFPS
UniProt Q5JSD2: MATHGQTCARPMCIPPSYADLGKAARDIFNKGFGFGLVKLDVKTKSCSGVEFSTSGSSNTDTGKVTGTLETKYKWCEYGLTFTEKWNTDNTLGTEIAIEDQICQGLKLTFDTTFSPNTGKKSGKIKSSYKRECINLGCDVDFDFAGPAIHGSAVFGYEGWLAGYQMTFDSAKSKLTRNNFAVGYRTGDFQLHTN
UniProt Q96S15: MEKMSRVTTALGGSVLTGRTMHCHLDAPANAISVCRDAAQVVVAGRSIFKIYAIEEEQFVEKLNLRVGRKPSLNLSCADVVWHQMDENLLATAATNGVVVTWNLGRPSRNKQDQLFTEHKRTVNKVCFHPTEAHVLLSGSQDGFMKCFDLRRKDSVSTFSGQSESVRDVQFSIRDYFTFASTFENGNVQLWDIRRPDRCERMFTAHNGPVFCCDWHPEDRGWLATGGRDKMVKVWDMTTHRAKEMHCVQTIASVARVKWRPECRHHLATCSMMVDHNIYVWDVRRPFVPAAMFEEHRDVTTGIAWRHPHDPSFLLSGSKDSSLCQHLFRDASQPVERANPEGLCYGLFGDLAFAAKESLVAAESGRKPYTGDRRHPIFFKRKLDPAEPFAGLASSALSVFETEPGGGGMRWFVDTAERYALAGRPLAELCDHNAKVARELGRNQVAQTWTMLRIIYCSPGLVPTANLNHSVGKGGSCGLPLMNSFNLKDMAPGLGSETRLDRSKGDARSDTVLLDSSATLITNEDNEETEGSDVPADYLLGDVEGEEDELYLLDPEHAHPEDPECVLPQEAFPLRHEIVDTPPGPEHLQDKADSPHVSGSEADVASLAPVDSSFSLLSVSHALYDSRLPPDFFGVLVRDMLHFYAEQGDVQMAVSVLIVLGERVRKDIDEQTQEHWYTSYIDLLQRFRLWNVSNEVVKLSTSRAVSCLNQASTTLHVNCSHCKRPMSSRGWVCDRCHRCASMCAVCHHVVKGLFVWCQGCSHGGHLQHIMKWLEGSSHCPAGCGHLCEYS
UniProt Q8NEZ3: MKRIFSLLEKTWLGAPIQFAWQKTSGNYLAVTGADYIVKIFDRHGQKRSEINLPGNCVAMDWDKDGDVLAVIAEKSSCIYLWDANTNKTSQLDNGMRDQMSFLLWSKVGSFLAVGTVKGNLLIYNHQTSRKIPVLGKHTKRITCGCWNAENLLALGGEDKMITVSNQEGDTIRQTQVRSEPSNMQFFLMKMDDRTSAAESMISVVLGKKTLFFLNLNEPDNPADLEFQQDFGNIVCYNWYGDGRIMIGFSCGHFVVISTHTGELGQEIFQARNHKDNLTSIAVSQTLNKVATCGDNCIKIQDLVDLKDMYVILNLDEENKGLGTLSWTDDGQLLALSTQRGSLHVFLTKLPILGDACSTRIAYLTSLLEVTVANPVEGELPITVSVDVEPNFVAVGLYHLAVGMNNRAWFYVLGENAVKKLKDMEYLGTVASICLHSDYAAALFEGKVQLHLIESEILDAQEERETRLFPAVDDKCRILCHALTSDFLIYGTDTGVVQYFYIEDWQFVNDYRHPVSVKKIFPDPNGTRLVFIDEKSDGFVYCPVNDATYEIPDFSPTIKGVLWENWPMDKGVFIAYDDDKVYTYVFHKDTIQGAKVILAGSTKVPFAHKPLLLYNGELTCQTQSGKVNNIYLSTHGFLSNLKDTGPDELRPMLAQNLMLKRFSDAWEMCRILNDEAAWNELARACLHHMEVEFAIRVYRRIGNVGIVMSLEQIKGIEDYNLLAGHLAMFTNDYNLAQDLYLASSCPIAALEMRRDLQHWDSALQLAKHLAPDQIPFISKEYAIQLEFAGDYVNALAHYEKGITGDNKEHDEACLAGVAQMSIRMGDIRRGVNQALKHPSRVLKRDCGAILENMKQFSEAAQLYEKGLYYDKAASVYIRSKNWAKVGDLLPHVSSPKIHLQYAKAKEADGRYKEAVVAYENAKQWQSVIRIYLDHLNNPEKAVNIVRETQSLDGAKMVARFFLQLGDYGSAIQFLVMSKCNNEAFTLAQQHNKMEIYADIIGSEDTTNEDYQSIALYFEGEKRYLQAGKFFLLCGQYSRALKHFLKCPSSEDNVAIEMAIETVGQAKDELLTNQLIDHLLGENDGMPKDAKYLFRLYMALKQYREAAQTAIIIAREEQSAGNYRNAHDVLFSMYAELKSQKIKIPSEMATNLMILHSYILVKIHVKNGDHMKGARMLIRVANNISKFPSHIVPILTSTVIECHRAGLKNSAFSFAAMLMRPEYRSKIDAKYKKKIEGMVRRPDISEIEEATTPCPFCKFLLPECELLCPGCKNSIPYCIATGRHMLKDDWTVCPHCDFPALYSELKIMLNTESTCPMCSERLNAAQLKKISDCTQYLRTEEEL
UniProt Q9Y6I7: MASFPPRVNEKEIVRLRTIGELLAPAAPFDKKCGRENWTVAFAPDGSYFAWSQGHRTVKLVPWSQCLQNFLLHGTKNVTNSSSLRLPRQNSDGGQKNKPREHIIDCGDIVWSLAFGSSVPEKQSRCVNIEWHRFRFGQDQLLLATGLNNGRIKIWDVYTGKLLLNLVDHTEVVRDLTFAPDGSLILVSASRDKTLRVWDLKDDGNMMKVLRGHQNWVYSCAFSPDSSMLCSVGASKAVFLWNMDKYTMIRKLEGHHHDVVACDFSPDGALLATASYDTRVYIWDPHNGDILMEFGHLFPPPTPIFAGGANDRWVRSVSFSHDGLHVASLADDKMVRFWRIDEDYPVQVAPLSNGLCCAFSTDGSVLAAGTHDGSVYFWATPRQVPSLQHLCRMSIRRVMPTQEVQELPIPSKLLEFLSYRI
UniProt Q9BTA9: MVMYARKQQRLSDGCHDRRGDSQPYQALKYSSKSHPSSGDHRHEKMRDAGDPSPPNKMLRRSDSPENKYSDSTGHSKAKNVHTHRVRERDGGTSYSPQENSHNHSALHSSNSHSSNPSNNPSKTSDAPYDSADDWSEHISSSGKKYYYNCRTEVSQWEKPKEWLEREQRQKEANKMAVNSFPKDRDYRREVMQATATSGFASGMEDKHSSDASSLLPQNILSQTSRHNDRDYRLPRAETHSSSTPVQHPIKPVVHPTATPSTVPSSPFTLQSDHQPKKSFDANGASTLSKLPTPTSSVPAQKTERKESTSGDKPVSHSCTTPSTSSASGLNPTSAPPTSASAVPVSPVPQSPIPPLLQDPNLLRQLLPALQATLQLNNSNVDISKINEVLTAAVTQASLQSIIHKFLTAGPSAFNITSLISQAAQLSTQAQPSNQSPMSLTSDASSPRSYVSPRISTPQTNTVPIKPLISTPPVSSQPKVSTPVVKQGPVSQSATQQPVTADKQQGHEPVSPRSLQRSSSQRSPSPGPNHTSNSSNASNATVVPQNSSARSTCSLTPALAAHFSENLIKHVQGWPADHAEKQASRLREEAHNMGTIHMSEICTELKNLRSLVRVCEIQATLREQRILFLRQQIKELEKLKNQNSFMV
UniProt P09327: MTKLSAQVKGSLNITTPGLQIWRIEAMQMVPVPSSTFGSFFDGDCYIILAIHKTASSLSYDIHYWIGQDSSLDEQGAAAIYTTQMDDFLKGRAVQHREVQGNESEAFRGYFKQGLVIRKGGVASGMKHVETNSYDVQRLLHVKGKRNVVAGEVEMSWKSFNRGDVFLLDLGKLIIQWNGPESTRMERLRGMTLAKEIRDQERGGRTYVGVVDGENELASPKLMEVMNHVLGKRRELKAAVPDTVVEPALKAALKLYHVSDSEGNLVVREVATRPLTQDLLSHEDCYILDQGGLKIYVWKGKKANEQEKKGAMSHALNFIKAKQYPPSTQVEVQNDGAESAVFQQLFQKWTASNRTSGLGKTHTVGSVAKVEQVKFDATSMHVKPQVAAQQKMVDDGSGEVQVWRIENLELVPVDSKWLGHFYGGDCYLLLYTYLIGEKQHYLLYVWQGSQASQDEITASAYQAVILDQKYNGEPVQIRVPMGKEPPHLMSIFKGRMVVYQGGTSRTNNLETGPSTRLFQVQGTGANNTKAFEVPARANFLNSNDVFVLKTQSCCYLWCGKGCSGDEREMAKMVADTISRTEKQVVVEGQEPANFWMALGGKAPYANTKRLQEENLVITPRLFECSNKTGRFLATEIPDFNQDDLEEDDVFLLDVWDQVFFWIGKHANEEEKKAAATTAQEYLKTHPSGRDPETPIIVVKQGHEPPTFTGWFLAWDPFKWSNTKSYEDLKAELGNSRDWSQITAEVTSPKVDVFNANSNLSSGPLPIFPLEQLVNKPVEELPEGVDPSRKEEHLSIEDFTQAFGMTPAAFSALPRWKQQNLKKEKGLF

Assays:
Test in all cases: log2 fold change, soluble protein after heating vs DMSO (PISA); higher = thermal stabilisation; K562 cells, 10 uM, 30 min; active = over 0.2 and 3.5 SD of the protein, either way, in both replicates (recomputed)
IRAK-1-4 Inhibitor I = compound: C1COCCN1CCN2C3=CC=CC=C3N=C2NC(=O)C4=CC(=CC=C4)[N+](=O)[O-] [IRAK-1-4 Inhibitor I]
How it was run: (§1)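 K562 cells at 2×10^6 cells/mL were treated for 30 min with 10 μM compound, and aliquots were heated for 3 min over 48°C-58°C before pooling. Extraction used PBS with 0.5% NP-40 at 4°C, and soluble protein was the supernatant after 21,000xg for 90 min, measured by TMTpro 16plex LC-MS/MS with channel sums equalised. Thermal stability values, relative to control samples and from duplicates, are log2 fold changes.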

pinometostat = compound: CC(C)N(C[C@H]1O[C@@H](n2cnc3c(N)ncnc32)[C@H](O)[C@@H]1O)[C@H]1C[C@@H](CCc2nc3cc(C(C)(C)C)ccc3[nH]2)C1 [pinometostat]
How it was run: as §1

[1] = compound: CC1=C(C(CC(=O)N1)C2=CC=C(C=C2)C(F)(F)F)C(=O)NC3=C(C=C4C(=C3)C=NN4)F
How it was run: as §1

[2] = compound: CC(=O)c1cnc2ccc(-c3cc(Cl)c(O)c(Cl)c3)nc2c1N[C@H]1CC[C@H](CN(C)C)CC1
How it was run: as §1

[3] = compound: CC(C)(O)CC(=O)NCCn1ccc2ncnc(Nc3ccc(Oc4cccc(C(F)(F)F)c4)c(Cl)c3)c21
How it was run: as §1

ibrutinib = compound: C=CC(=O)N1CCC[C@@H](n2nc(-c3ccc(Oc4ccccc4)cc3)c3c(N)ncnc32)C1 [ibrutinib]
How it was run: as §1

[4] = compound: CC1=C(C2=C(C=C1)C(=O)C3=CC=CC=C3N2CCCN)C
How it was run: as §1

ralimetinib = compound: CC(C)(C)Cn1c(N)nc2ccc(-c3[nH]c(C(C)(C)C)nc3-c3ccc(F)cc3)nc21 [ralimetinib]
How it was run: as §1

[5] = compound: CC(C)C1=C2N=C(C=C(N2N=C1)NCC3=CC=CC=C3)NCCCCCCN
How it was run: as §1

[6] = compound: CC(C)C[C@@H](C=O)NC(=O)[C@H](CC(C)C)NC(=O)[C@H](CC(C)C)NC(=O)OCc1ccccc1
How it was run: as §1

Measured: log2 fold change

WDR13, A0A087X091
inactive: IRAK-1-4 Inhibitor I 0.213 | pinometostat 0.003 | [1] 0.105

WDR76 (UniProt Q9H967)
inactive: [2] -0.112 | [3] 0.11

WIPI2 isoform 6 (UniProt Q9Y4P8)
inactive: ibrutinib -0.073 | [2] 0.045

WARS1 (UniProt G3V227)
inactive: ibrutinib 0.03 | [2] -0.022 | [3] 0.259 | [4] -0.048

VDAC1 (UniProt C9JI87)
inactive: [2] -0.091 | ralimetinib -0.506 | [3] -0.052 | [5] 0.009 | [6] -0.013

WWOX (UniProt Q9NZC7)
inactive: [5] 0.064 | [4] 0.024

VCPKMT (UniProt Q9H867)
inactive: [2] -0.209 | [4] 0.071

Quoted at random: 2 entries already listed, in no set order.
WDR76 (UniProt Q9H967)
inactive: [2] -0.112 | [3] 0.11

WWOX (UniProt Q9NZC7)
inactive: [5] 0.064 | [4] 0.024

(next part)

VDAC2 (UniProt Q5JSD2)
inactive: [3] -0.027 | [1] 0.173

WDR24 (UniProt Q96S15)
inactive: [2] -0.024 | ralimetinib 0.008 | [3] 0.177 | [5] 0.026 | [6] -0.059 | [4] 0.196

WDR19 (UniProt Q8NEZ3)
inactive: ibrutinib -0.272 | [2] 0.026 | ralimetinib -0.038 | [6] -0.057 | [4] -0.021

WSB1 (UniProt Q9Y6I7)
inactive: [3] -0.013

VDAC2 (UniProt Q5JSD1)
inactive: ralimetinib -0.149 | [3] 0.309 | [6] 0.24 | [1] 0.213

WAC (UniProt Q9BTA9)
inactive: IRAK-1-4 Inhibitor I -0.035 | pinometostat -0.117

VIL1 (UniProt P09327)
inactive: ibrutinib 0.062 | [3] 0.018
